The list shows a part of the results. Further columns of the screen follow, without active or inactive calls. Most of these compounds were active or inconclusive in the main read-out, so they are no random draw. Words in brackets tell the shape of the fitted curve; partial curves, single points and poor fits give uncertain potencies.
Test: qHTS Assay for Lipid Storage Modulators in Drosophila S3 Cells;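 for cell number change: cells counted by Cell Tracker Red CMTPX staining in the red channel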
Settings: BODIPY lipid droplet fluorescence, 18-24 h; for cell number change: measured here: cell count max response, cells fed with added oleic acid
Procedure, shortened: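 Laser-scanning cytometry quantifies lipid droplet accumulation (500–530 nm total intensity; droplet/cell object ratio) in oleic acid-fed (400 uM added) Drosophila S3 cells treated with a concentration series. 20 uM Triacsin C defined 100% inhibition.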

[1] = measured here: lipid fluorescence (Fed channel) AC50, cells fed with added oleic acid
[2] = measured here: cell number channel AC50, cells fed with added oleic acid

SMILES | cell number change [%] | AC50 [1] | AC50 [2]
OC(COc1ccc2c(c1)CCC2)CN1CCN(c2ccccc2F)CC1 (stereo not drawn) | -198 | 5.17 nM [falling, full curve, poor fit] | 
Cc1c(Cl)cccc1NC(=O)CNC(=O)CCCc1nc2ccccc2c(=O)[nH]1 |  |  | 6510 nM [rising, single point]
O=C(CN1CCN(S(=O)(=O)N2CCCCC2)CC1)Nc1ccc(Br)cc1 | -14.1 | 1160 nM [falling, partial curve, poor fit] | 
C/C=C(/C)C(=O)Nc1cccc(C2=NOC3(C2)C[C@@H](C(N)=O)N(C(=O)c2ccc(OC)cc2)C3)c1 (stereo partly drawn) | 17.7 |  | 
O=[N+]([O-])c1cccc(CSc2cccc[n+]2[O-])c1 | -25.5 |  | 580 nM [falling, full curve, poor fit]
COCCC(=O)N1CCCC(CCC(=O)NCc2ccc(F)c(F)c2)C1 (stereo not drawn) | 14.6 | 3660 nM [falling, single point] | 
O=C(c1ccccn1)N1CCCC(N2CCN(c3cccc(C(F)(F)F)c3)CC2)C1 (stereo not drawn) |  | 580 nM [falling, single point] | 
Clc1cccc(Cl)c1C[n+]1ccc2ccccc2c1 | -25.3 |  | 
Cc1nc2cccnc2nc1C | 10.6 | 651 nM [rising, partial curve, poor fit] | 
Cc1ccc(-n2nnnc2SCC(=O)Nc2sccc2C#N)cc1 |  | 20600 nM [rising, single point] | 
c1cnc2nc(CSc3ncn[nH]3)cn2c1 | -35.8 |  | 
CCn1cc(C(=O)NN)c(=O)c2cc(F)c(N3CCCCC3)cc21 | -23.6 |  | 
CC1Cc2ccccc2N1C(=O)CN(C)CC(=O)Nc1ccc(OC(F)(F)F)cc1 (stereo not drawn) | -30.3 |  | 29100 nM [falling, single point]
O=C(CSc1ccc(-c2cccs2)nn1)NCCc1ccccc1 | 30.3 | 7310 nM [rising, partial curve] | 13000 nM [rising, partial curve, poor fit]
COc1cccc(NC(=O)CN(C)C(=O)CCNC(=O)c2ccccc2Cl)c1 | 26.4 | 7310 nM [rising, partial curve, poor fit] | 
Cc1csc(NC(=O)CN(C)S(=O)(=O)c2cccc3cccnc23)n1 |  | 1460 nM [rising, partial curve] | 920 nM [rising, partial curve]
Cc1cc(NC(=O)c2ccc3c(c2)C(=O)N(C2CCCCC2)C3=O)no1 | -1.02 | 16400 nM [falling, partial curve] | 
CCOc1ccccc1NC(=O)C(OC(=O)c1cc(C)oc1C)c1ccccc1 (stereo not drawn) | 5.65 | 2060 nM [falling, single point] | 
O=C(NCc1nc(-c2ccc(Cl)cc2)no1)c1ccco1 | -13.2 | 2060 nM [falling, partial curve] | 
Cc1cccc(OCCCn2c(CO)nc3ccccc32)c1 | 25.5 | 2910 nM [rising, full curve] | 
CCCCOC(=O)c1ccc(NC(=O)CSCc2n[nH]c(=O)[nH]2)cc1 |  | 146 nM [rising, partial curve, poor fit] | 

Looked up above:
Entry for `Cc1cccc(OCCCn2c(CO)nc3ccccc32)c1` under cell number change [%]: 25.5
Entry for `O=C(NCc1nc(-c2ccc(Cl)cc2)no1)c1ccco1` under AC50 [1]: 2060 nM [falling, partial curve]
Entry for `Clc1cccc(Cl)c1C[n+]1ccc2ccccc2c1` under cell number change [%]: -25.3

Remaining list, next part:

SMILES | cell number change [%] | AC50 [1] | AC50 [2]
COc1ccccc1C(=O)Nc1ccnn1C1CCN(C(=O)c2cnsn2)CC1 | -6.58 | 16400 nM [falling, single point] | 
CN1c2ccccc2-c2nc3ccccc3n2C1c1ccco1 (stereo not drawn) | -17.5 | 130 nM [rising, full curve, poor fit] | 
Cc1ccccc1C(=O)Nc1nnc(-c2ccco2)o1 | 59.7 | 4110 nM [falling, single point] | 3260 nM [falling, single point]
CC(C)COc1ncnc2c1sc1nc3c(cc12)COC(C)(C)C3 | -4.44 | 130 nM [falling, full curve, poor fit] | 
O=C(c1cc2c(s1)CCC2)N1CCN(c2ccccc2)CC1 | 29.3 |  | 2910 nM [rising, full curve, poor fit]
CSc1ccc(NS(=O)(=O)c2ccc(-n3cnnn3)cc2)cc1 | -10.3 |  | 
O=C1c2cccc3cccc(c23)C(=O)N1CCCSc1ncn[nH]1 | 27.2 |  | 
CC(C)N(Cc1nc(-c2ccccc2)no1)C(=O)C1CCCCC1 | 101 | 16400 nM [rising, partial curve] | 13000 nM [rising, partial curve]
CCN(c1ccccc1)S(=O)(=O)c1cc(C(=O)Nc2ccc(Br)cc2)ccc1F | 1.23 | 3260 nM [rising, partial curve, poor fit] | 
Cc1ccc(C2(C)NC(=O)N(CC(=O)N(Cc3ccccc3)C(C)(C)C)C2=O)cc1 (stereo not drawn) | 4.17 | 116 nM [rising, full curve, poor fit] | 
Cc1cc(C(=O)N(C)C2CCCCC2)no1 | 15.8 |  | 731 nM [rising, full curve, poor fit]
COc1ccc(CCN(C(=O)c2snc(C(N)=O)c2N)C(C)C(=O)NC2CCCCC2)cc1OC (stereo not drawn) | -6.41 |  | 
O=C(CSc1nnnn1-c1ccc(F)cc1)Nc1ccc(N2CCOCC2)c(Cl)c1 | 9.97 |  | 
COc1ccccc1NC(=O)Oc1ccc(NC(=O)c2ccco2)cc1 | 1.29 |  | 
Cc1cc(-c2ccc(NC(=O)[C@@H]3CCCC[C@@H]3C(=O)O)c(C)c2)ccc1NC(=O)[C@@H]1CCCC[C@@H]1C(=O)O | 59.6 |  | 
CCC1CCCCN1C(=O)CSc1nnc2nc(C)cc(C)n12 (stereo not drawn) | 0.746 | 4110 nM [falling, partial curve, poor fit] | 
COC(=O)CN1C(=S)N(Cc2ccccc2)C(=O)C1CC(=O)Nc1ccc(OC)cc1 (stereo not drawn) | 38.7 |  | 29100 nM [rising, single point]
Cc1cc(C)c(S(=O)(=O)N2CCOCC2)c(C)c1N(C)S(=O)(=O)c1ccccc1 | -47.4 | 1460 nM [falling, partial curve] | 8200 nM [falling, partial curve]
COCc1nnc(NC(=O)c2c(-c3c(Cl)cccc3Cl)noc2C)s1 | 12.6 |  | 
COc1cc2cc(CCCOC(=O)c3cccc(Br)c3)oc(=O)c2cc1OC | -24 | 5.17 nM [rising, full curve, poor fit] | 
COc1cccc(NC(=O)CN(C)C(=O)c2ccc3c(c2)CC(c2ccccc2)OC3=O)c1 (stereo not drawn) | -10.3 | 3260 nM [rising, partial curve, poor fit] | 

SMILES | cell number change [%] | AC50 [1] | AC50 [2]
O=C1CC(N2CCC(c3nc4ccccc4o3)CC2)C(=O)N1c1cc(Cl)cc(Cl)c1 (stereo not drawn) | 117 | 29100 nM [falling, single point] | 6510 nM [rising, full curve]
CCOc1ccc(C(=O)CCC(=O)N2CCN(S(=O)(=O)c3cccc(F)c3)CC2)cc1 | 53 | 29100 nM [rising, single point] | 29100 nM [rising, single point]
CN1C(=O)N(C)C2(c3ccccc3)N(C)C(=O)NC12c1ccccc1 (stereo not drawn) | -1.21 | 164 nM [falling, full curve] | 
O=C1CCCN1c1ccc(S(=O)(=O)NCCOc2ccccc2)cc1 | -39.7 | 29100 nM [falling, single point] | 32600 nM [falling, single point]
CC(=O)c1n[nH]nc1NC(=O)c1ccccc1 | -1.18 | 4.61 nM [rising, full curve, poor fit] | 
CC(=O)c1ccc(N2CCN(C(=O)c3ccco3)C(C)C2)c(F)c1 (stereo not drawn) |  | 411 nM [rising, partial curve, poor fit] | 731 nM [rising, single point]
CC(C)CC(=O)Nc1ccc2c3c(cccc13)CC2 | 4.57 | 2060 nM [rising, partial curve, poor fit] | 
COc1cccc(OC)c1C(=O)Nn1c(-c2cccc(C)c2)nc2ccccc2c1=O | 5.85 |  | 
O=[N+]([O-])c1cccc(-c2nc(-c3cccs3)c(-c3cccs3)[nH]2)c1 | -18.4 | 29100 nM [falling, single point] | 
CN(CC(=O)Nc1ccccc1Br)C(=O)COc1ccc2ccccc2c1 | -12.4 |  | 
Cn1cccc1C(=O)OCC(=O)NC(=O)NC1CCCCC1 | 21.6 |  | 
O=C(c1coc2ccc(O)cc12)C1CC1 | 6.74 | 9200 nM [rising, partial curve] | 
C=CCc1ccccc1OCC(O)CN1CCN(c2ccc(OC)cc2)CC1 (stereo not drawn) | -12.1 | 164 nM [falling, full curve] | 
O=S(=O)(c1ccc(F)c(Cl)c1)N1CCN(C/C=C/c2ccccc2)CC1 | -30 | 5.17 nM [falling, full curve, poor fit] | 
O=C(NCc1cccnc1)NC1(c2ccccc2)CC1 | 13.2 | 18.4 nM [falling, full curve, poor fit] | 
O=C(NCc1ccc(F)cc1)C1CCCN1S(=O)(=O)c1ccccc1C(F)(F)F (stereo not drawn) | -2.94 |  | 
CCOC(=O)c1ccc(N=C2C(=S)N(c3ccc(C(=O)OCC)cc3)C(=N)N2/N=C/c2ccccc2)cc1 | -0.332 | 6510 nM [rising, single point] | 
CCCC1S/C(=N/N=C/c2ccc(OC)cc2)N(Cc2ccccc2)C1=O (stereo not drawn) |  | 580 nM [rising, single point] | 411 nM [rising, full curve, poor fit]
COC(=O)[C@@]12CCCCN1[C@H](c1ccc(-c3ccc4c(c3)OCO4)c(OC)c1)[C@@H]1C(=O)N(C)C(=O)[C@@H]12 | 19.2 | 184 nM [rising, full curve, poor fit] | 
Cc1cc([N+](=O)[O-])nn1Cn1nc([N+](=O)[O-])cc1C | -36.1 | 2060 nM [falling, partial curve] | 29100 nM [falling, single point]

Reference: PubChem BioAssay AID2685 (National Center for Advancing Translational Sciences (NCATS), 2010)
